PubChem BioAssay AID1508588, Peter MacCallum Cancer Centre | 2020
Assay: 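Which gene losses make BRAF-mutant melanoma cells more responsive to vemurafenib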 (primary screen). Cells: human WM266.4 melanoma cells (BRAF V600 mutant). Reagents: siRNA pool against human genes, 40 nM. Timing: 96 h from transfection to read-out. Treatment: vemurafenib 300 nM (about IC25), added 48 h after transfection, for 48 h; comparison arm got DMSO vehicle only. Detection: 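Ratios to non-targeting siRNA for cell gain, counted as DAPI nuclei after minus before drug and averaged over two replicates, and for absorbance-read medium lactate per cell; both binned into fold-change classes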. Scale: cell gain with vemurafenib: higher = more cell gain than with non-targeting siRNA; lactate per cell with vemurafenib: higher = more lactate made per cell. Rule for the call: 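Enhancement is called by pairing each knock-down's vehicle-arm and drug-arm fold-change classes for viability or glycolysis; which class combinations qualify is not given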. Calls: active = enhances vemurafenib effect; inactive = no enhancement seen.
The deposit covers about 18,000 reagents; shown is a random part of them. Over the whole deposit, 790 (4.4%) were called active. 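Calls rest on a combination of fold-change classes in drug and vehicle arms, not all shown here.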 Entries without a mark were called inactive. Reagent sequences are not shown.

cell gain with vemurafenib	lactate per cell with vemurafenib	gene symbol
0.87	0.86	DAGLA (diacylglycerol lipase alpha)
0.81	0.73	LACTB (lactamase beta)
0.91	0.28	TNFRSF8 (TNF receptor superfamily member 8)
0.66	0.98	ENKUR (enkurin, TRPC channel interacting protein)
0.86	0.72	AZIN2 (antizyme inhibitor 2)
1.09	0.75	TEX264 (testis expressed 264, ER-phagy receptor)
0.11	2.17	POTEG (POTE ankyrin domain family member G)
1.05	0.7	SHOC2 (SHOC2 leucine rich repeat scaffold protein)
0.38	0.48	OR6C68 (olfactory receptor family 6 subfamily C member 68)
0.36	0.75	TMEM14A (transmembrane protein 14A)
0.43	1.1	DENND11 (DENN domain containing 11)
0.64	0.26	REXO4 (RNA exonuclease 4)
0.78	0.52	ITIH4 (inter-alpha-trypsin inhibitor heavy chain 4)
0.16	1.11	MCF2L (MCF.2 cell line derived transforming sequence like)
0.79	0.93	ACSL6 (acyl-CoA synthetase long chain family member 6)
0.61	2.03	URI1 (URI1 prefoldin like chaperone)
0.03 (active)	1.13	DHRS11 (dehydrogenase/reductase 11)
0.5	0.92	SMIM29 (small integral membrane protein 29)
0.96 (active)	0.35	PCDHB14 (protocadherin beta 14)
0.33	1.58	CST2 (cystatin SA)
0.41	2.08	BUB3 (BUB3 mitotic checkpoint protein)
0.48	0.47	CDKL1 (cyclin dependent kinase like 1)
0.71	1.19	ZNF750 (zinc finger protein 750)
0.59	1.19	CELF3 (CUGBP Elav-like family member 3)
0.5	1.31	IFNA1 (interferon alpha 1)
0.62	1.27	CD163L1 (CD163 molecule like 1)
0.47	1.8	ATP6V0D1 (ATPase H+ transporting V0 subunit d1)
0.5	1.01	HELT (helt bHLH transcription factor)
0.37	1	TMEM74 (transmembrane protein 74)
-0.02	1.5	SFI1 (SFI1 centrin binding protein)
0.6	0.89	ZG16 (zymogen granule protein 16)
0.71	1	SLC6A20
1.02	0.8	PDZD4 (PDZ domain containing 4)
0.39	0.78	DDX10 (DEAD-box helicase 10)
0.57	0.75	SLC10A6
0.87	0.43	NT5C3A (5'-nucleotidase, cytosolic IIIA)
0.94	0.61	CBLN3 (cerebellin 3 precursor)
0.37	0.82	RUNX1 (RUNX family transcription factor 1)
0.84	1.31	SULT1A3 (sulfotransferase family 1A member 3)
0.53	0.71	METTL9 (methyltransferase 9, His-X-His N1(pi)-histidine)
-0.14	2.75	OR10H4 (olfactory receptor family 10 subfamily H member 4)
0.53	0.56	ITPRIPL2 (ITPRIP like 2)
0.01	1.1	DCAF4 (DDB1 and CUL4 associated factor 4)
0.88	0.66	TCF7L2 (transcription factor 7 like 2)
0.92	0.4	INPP5J (inositol polyphosphate-5-phosphatase J)
0.37	1.02	SCGB1D2 (secretoglobin family 1D member 2)
1.01	0.68	PCNX2 (pecanex 2)
0.26	2.62	GPCPD1 (glycerophosphocholine phosphodiesterase 1)
0.47	1.24	STAT2 (signal transducer and activator of transcription 2)
0.27	1.17	STRA8 (stimulated by retinoic acid 8)
0.95	0.55	PDE6D (phosphodiesterase 6D)
0.29	0.51	CRYBG3 (crystallin beta-gamma domain containing 3)
0.65	0.89	TECTB (tectorin beta)
0.55	0.75	LOC652759 (retired record)
1.26	0.52	EXO1 (exonuclease 1)
-0.01 (active)	0.14	USP2 (ubiquitin specific peptidase 2)
0.35	1.15	SLC22A9
0.37 (active)	0.48	CELA1 (chymotrypsin like elastase 1)
0.63	1.2	MTRF1L (mitochondrial translation release factor 1 like)
0.65	0.9	TMEM132B (transmembrane protein 132B)
0.12	0.76	MAPK4 (mitogen-activated protein kinase 4)
0.36	0.56	CPB2 (carboxypeptidase B2)
0.85	1.1	AGTPBP1 (ATP/GTP binding carboxypeptidase 1)
0.89	0.7	TBC1D2B (TBC1 domain family member 2B)
0.66 (active)	0.48	PPP1R1A (protein phosphatase 1 regulatory inhibitor subunit 1A)
0.72	0.89	SCG5 (secretogranin V)
0.68	0.34	JUN (Jun proto-oncogene, AP-1 transcription factor subunit)
0.36	0.92	SPINT1 (serine peptidase inhibitor, Kunitz type 1)
0.69	0.73	PSG11 (pregnancy specific beta-1-glycoprotein 11)
0.86	1.09	STAM (signal transducing adaptor molecule)
0.3	0.84	STYX (serine/threonine/tyrosine interacting protein)
0.54	0.64	LINC02872 (long independently transcribed non-coding RNA 2872)
0.73	0.71	KRTAP20-1 (keratin associated protein 20-1)
0.27	1.2	EHD1 (EH domain containing 1)
0.63	0.66	UBE2N (ubiquitin conjugating enzyme E2 N)
0.59	0.91	MAEA (macrophage erythroblast attacher, E3 ubiquitin ligase)
-0.08	1.71	RPL9 (ribosomal protein L9)
1.1	0.82	DNASE2 (deoxyribonuclease 2, lysosomal)
0.36	0.79	TASP1 (taspase 1)
0.82	0.46	CEP76 (centrosomal protein 76)
0.46	0.3	SSMEM1 (serine rich single-pass membrane protein 1)
0.82	0.77	DNAJC14 (DnaJ heat shock protein family (Hsp40) member C14)
0.55	1.31	ACOT11 (acyl-CoA thioesterase 11)
0.81	0.8	OOSP2 (oocyte secreted protein 2)

Quoted from above for reference:
cell gain with vemurafenib	lactate per cell with vemurafenib	gene symbol
0.35	1.15	SLC22A9
0.37 (active)	0.48	CELA1 (chymotrypsin like elastase 1)
0.63	1.2	MTRF1L (mitochondrial translation release factor 1 like)
0.65	0.9	TMEM132B (transmembrane protein 132B)
0.12	0.76	MAPK4 (mitogen-activated protein kinase 4)
0.36	0.56	CPB2 (carboxypeptidase B2)
0.85	1.1	AGTPBP1 (ATP/GTP binding carboxypeptidase 1)
0.89	0.7	TBC1D2B (TBC1 domain family member 2B)
0.66 (active)	0.48	PPP1R1A (protein phosphatase 1 regulatory inhibitor subunit 1A)
0.72	0.89	SCG5 (secretogranin V)
0.68	0.34	JUN (Jun proto-oncogene, AP-1 transcription factor subunit)
